# Measured values published in PubChem BioAssay AID504467 (National Center for Advancing Translational Sciences (NCATS), 2011).
# Out of some 330,000 compounds screened, about 7,700 (2.3%) were called active. The inconclusive results got no clear call from the source; some entries with a clear call stand among them for comparison. Calls follow the shape of the dose curve; as a rule, active = well fitted inhibition curve with a large enough effect; inconclusive = small, poorly fitted or top-dose-only effect, or effect the other way; inactive = flat fitted curve, though single readings scatter. Potencies beside an inconclusive call are fits to weak or partial responses and may not hold up.
# Assay: qHTS screen for small molecules that inhibit ELG1-dependent DNA repair in human embryonic kidney (HEK293T) cells expressing luciferase-tagged ELG1; also: nearly all actives have a fitted effect of over 55% in size
# Conditions: HEK293T ELG1-luciferase reporter, luminescence, 16 h, DNA damage induced by 5-fluorouridine; activity change, negative = inhibition: at 46.1 µM (top of the series)
# Method in brief: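 Quantitative HTS, concentration-response format. 2,000 cells/well co-treated with 5-fluorouridine and compound, 16 hr in 5% CO2 at 37 °C; ONE-Glo luminescence read after 30 min.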
# % is scaled to controls: 0 for no effect and ±100 for the full control effect; potency is read from the fitted curve at half-maximal effect.
SMILES,Potency,"activity change, negative = inhibition"
Cn1c(=O)cc2c3c(c(N4CCCCC4)ccc31)C(=O)c1ccccc1-2,"inconclusive: 16.4 µM [activator, single point]",–
Cc1nn(Cc2c(Cl)cccc2Cl)c(C)c1NC(=O)c1cn(-c2ccccc2)nc1-c1ccccc1,"inconclusive: 7.31 µM [inhibitor, single point]",–
COc1ccc(NC(=O)CN(C)C(=O)CNC(=O)c2ccc3ccccc3c2)cc1,"inconclusive: 14.6 µM [activator, partial curve]",–
COCCc1nc2ccc(C(=O)N(C)Cc3cccc(-n4nc(C)cc4C)c3)cc2o1,"inconclusive: 18.3 µM [inhibitor, partial curve]",–
COc1ccccc1OCCCC(=O)Nc1ccc([N+](=O)[O-])cc1Br,"inconclusive: 29.1 µM [inhibitor, single point]",–
C[C@@]12C(=O)N(c3cccc(Br)c3)C(=O)N1[C@H](c1ccc(Cl)cc1)[C@@H]1C(=O)N(C3CCCCC3)C(=O)[C@@H]12,"inconclusive: 4.11 µM [inhibitor, single point]",–
COc1ccc(OC)c(NC(=O)c2ccc(OCC(=O)N3CCOCC3)c(OC)c2)c1,–,inactive: -12.9%
C=CCn1c(SCC(=O)Nc2cccc(S(N)(=O)=O)c2)nc2sc(C)c(C)c2c1=O,"inconclusive: 18.3 µM [inhibitor, partial curve]",–
CCOC(=O)c1ccc(-c2ccc3oc(-c4ccsc4)cc(=O)c3c2)cc1F,"inconclusive: 18.3 µM [activator, partial curve, poor fit]",–
COc1ccc(NC(=O)COc2ccc(C)cc2)c([N+](=O)[O-])c1,"inconclusive: 20.6 µM [activator, single point]",–
COc1ccc(C(=O)NCCc2cn3ccccc3n2)cc1,"inconclusive: 29.1 µM [activator, single point]",–
O=C(Cc1ccc2c(c1)OCCO2)Nc1cc(Cl)ccc1N1CCOCC1,–,inactive: 0.519%
CCOC(=O)N1CCN(C(=O)CSc2nnc(-c3cc(OC)cc(OC)c3)o2)CC1,"inconclusive: 20.6 µM [inhibitor, partial curve]",–
CC(=O)OC(COc1cccc(C)c1)Cn1cnc2ccccc21 (stereo not given),–,inactive: 13%
O=C(CSc1ncnc2sccc12)N1CCCCC1,"inconclusive: 13 µM [activator, partial curve]",–
O=C(OCc1c(-c2ccccc2)ncc2ccccc12)c1cccc(Br)c1,active: 9.2 µM,–
Cc1ccc(C(=O)NCCCNC(=O)c2ccc(Cl)cc2)cn1,–,inactive: -14.1%
N#C/C(=C\c1cn(Cc2ccccc2F)c2ccccc12)C(=O)NCc1ccco1,–,inactive: -0.656%
CC(C)(C)c1cnnn1-c1ccc(/C=N/Nc2ccc([N+](=O)[O-])cc2)cc1,"inconclusive: 20.6 µM [inhibitor, partial curve]",–
O=C(Nc1ccc2nn(-c3ccccc3)nc2c1)c1cccs1,"inconclusive: 8.2 µM [activator, partial curve]",–
COCCN1CCN(C(=O)c2cc(COc3ccc(F)c(F)c3)on2)CC1,"inconclusive: 16.4 µM [activator, partial curve]",–
CCOC(=O)c1sc(-c2ccccc2)cc1NC(=O)Nc1ccccc1,"inconclusive: 20.6 µM [inhibitor, single point]",–
CC1Oc2ccccc2C=C1/C=C1/SC(N2CCOCC2)=NC1=O (stereo not given),"inconclusive: 29.1 µM [activator, single point]",–
CCc1nnc(NC(=O)c2ccc(S(=O)(=O)N(C)c3ccccc3)cc2)o1,active: 7.3 µM,–

SMILES,Potency,"activity change, negative = inhibition"
Cn1cccc1C(=O)NCC(c1ccc(F)cc1)N1CCOCC1 (stereo not given),"inconclusive: 20.6 µM [activator, partial curve, poor fit]",–
CSc1ccc(CNc2ccccn2)cc1,"inconclusive: 18.4 µM [activator, partial curve]",–
Cc1ccc(Nc2n[nH]c(C)c2[N+](=O)[O-])cc1C,"inconclusive: 2.06 µM [activator, full curve]",–
O=C(CN1CCN(CCC(=O)Nc2ccccc2F)CC1)Nc1ccc(F)cc1,–,inactive: -2.44%
C=COCCn1c(-c2nonc2N)nc2ccccc21,"inconclusive: 6.51 µM [inhibitor, partial curve]",–
O=C(NCCc1ccccc1)C1c2ccccc2C(=O)N1Cc1cccs1 (stereo not given),"inconclusive: 2.91 µM [activator, full curve]",–
O=C(COC(=O)c1cccc(NC(=O)c2ccco2)c1)c1ccc(Br)cc1,–,inactive: -14.8%
COc1ccc(CCC(=O)NCCS(=O)(=O)N2CCN(c3ccc(OC)cc3)CC2)cc1,"inconclusive: 20.6 µM [inhibitor, single point]",–
CNS(=O)(=O)c1cccc(C(=O)OCC(=O)N2CC(C)OC(C)C2)c1 (stereo not given),–,inactive: -6.14%
COc1ccccc1C(=O)Nc1ccc(C)c(S(=O)(=O)N2CCCCC2)c1,active: 4.11 µM,–
COc1cc(/C=c2\sc3n(c2=O)CCCN=3)ccc1O,"inconclusive: 13 µM [activator, partial curve]",–
COc1cccc(/C=N/n2c(C)nc3ccccc32)c1OC,"inconclusive: 7.31 µM [inhibitor, partial curve]",–
CCOC(=O)c1ccc(NC(=O)c2ccccc2[N+](=O)[O-])cc1,"inconclusive: 18.4 µM [activator, partial curve]",–
COc1ccccc1CNC(=O)CCCn1nc(C)n2ccnc2c1=O,–,inactive: 6.71%
COCC(=O)Nc1cc(C(=O)Nc2ccccc2)ccc1Cl,"inconclusive: 29.1 µM [activator, single point]",–
Cc1noc(C)c1C(=O)Nc1nnc(-c2ccccc2)s1,–,inactive: 12.7%
CN(C)CCC(=O)c1cccc(Br)c1,–,inactive: 10.4%
COc1ccc2oc(=N)c(C(=O)Nc3ccc(Cl)cc3)cc2c1,"inconclusive: 10 µM [activator, partial curve, poor fit]",–
N=c1oc2ccc3ccccc3c2cc1C(N)=S,–,inactive: 0.0377%
CC(=O)c1cccc(NC(=S)NC(=O)c2ccc(C)cc2Cl)c1,"inconclusive: 5.8 µM [activator, partial curve]",–
Clc1ccccc1Cc1noc(CN2CCSCC2)n1,"inconclusive: 18.3 µM [activator, partial curve, poor fit]",–
COC(=O)COc1cccc2c(=O)n(CC(=O)NCc3ccc(F)cc3)ccc12,"inconclusive: 16.4 µM [activator, single point]",–
COc1ccc(C(=O)Nc2ccc(NC(=O)c3ccccn3)cn2)cc1,"inconclusive: 9.2 µM [activator, partial curve]",–
Nc1ccc(-c2nc3c(Cl)c(N)ccc3[nH]2)cc1,"inconclusive: 29.1 µM [activator, single point]",–

# Full records as entered above. Values in the order: Potency | activity change, negative = inhibition
# O=C(CN1CCN(CCC(=O)Nc2ccccc2F)CC1)Nc1ccc(F)cc1 is listed with – | inactive: -2.44%
# CCOC(=O)c1ccc(NC(=O)c2ccccc2[N+](=O)[O-])cc1 is listed with inconclusive: 18.4 µM [activator, partial curve] | –
# COC(=O)COc1cccc2c(=O)n(CC(=O)NCc3ccc(F)cc3)ccc12 is listed with inconclusive: 16.4 µM [activator, single point] | –

# More structures.

SMILES,Potency,"activity change, negative = inhibition"
Cc1cccc(N2CCN(S(=O)(=O)c3cc(-c4cc(C)no4)ccc3C)CC2C)c1 (stereo not given),"inconclusive: 6.51 µM [inhibitor, single point]",–
COc1ccc(-n2c(=O)c3ccccc3n(Cc3cccc(C)c3)c2=O)cc1OC,–,inactive: -27.8%
CCOC(=O)c1ccccc1NC(=O)Cc1ccc(S(=O)(=O)N2CCCC2)s1,active: 25.9 µM,–
CCOc1ccccc1C(=O)NC1CCN(Cc2ccccc2)CC1,–,inactive: 1.59%
O=[N+]([O-])c1ccc(OCc2n[nH]c(=S)n2-c2ccccc2)cc1,–,inactive: -2.87%
CC1=C(C(=O)OCCOc2ccccc2)C(c2ccsc2)NC(=O)N1C (stereo not given),active: 23.1 µM,–
CCC(C)NC(=O)c1c(N)n(/N=C/c2cccs2)c2nc3ccccc3nc12 (stereo not given),"inconclusive: 9.2 µM [inhibitor, partial curve, poor fit]",–
Cc1ccccc1NC(=O)c1ccc(CSc2ncccn2)cc1,"inconclusive: 16.4 µM [activator, single point]",–
Cc1cc(C(=O)COC(=O)c2ccc(CO)cc2)c(C)n1CC1COc2ccccc2O1 (stereo not given),"inconclusive: 29.1 µM [inhibitor, partial curve, poor fit]",–
CC(=O)Nc1ccc(SCC(=O)c2cc(C)n(Cc3cccs3)c2C)cc1,"inconclusive: 0.651 µM [activator, partial curve, poor fit]",–
COc1ccc(S(=O)(=O)N2CCN(Cc3ccccc3)CC2)cc1OC,–,inactive: -18.2%
Cc1ccc2nc(NC(=O)/C=C/c3ccc4c(c3)OCO4)sc2c1,"inconclusive: 29.1 µM [activator, single point]",–
O=S(=O)(c1ccc2nc(-c3ccco3)c(-c3ccco3)nc2c1)N1CCOCC1,active: 16.4 µM,–
COc1ccccc1-c1ccc(Nc2cccc(C(F)(F)F)c2)nn1,"inconclusive: 14.6 µM [activator, single point]",–
O=C(c1cc(-c2ccc(O)cc2)on1)N1CCCC1,"inconclusive: 7.3 µM [activator, partial curve]",–
COc1ccc(-c2n[nH]c(=S)nc2-c2ccc(OC)cc2)cc1,–,inactive: 3.91%
Cc1cccc(C(=O)Nc2cc(S(=O)(=O)N3CCOCC3)ccc2N2CCCC2)c1,"inconclusive: 13 µM [activator, partial curve, poor fit]",–
CCCc1ccc(S(=O)(=O)NCCc2ccncc2)cc1,"inconclusive: 14.1 µM [inhibitor, single point]",–
Cc1nc(SCC(=O)NC(=O)NCCC(C)C)c2c(-c3cccs3)csc2n1,"inconclusive: 10.3 µM [inhibitor, partial curve]",–
COc1ccc(C(=O)N/N=C(\C)CC(=O)N2CCN(C=O)CC2)cc1,"inconclusive: 14.6 µM [activator, partial curve, poor fit]",–
N#CC(=C=[N-])c1nc2ccccc2nc1-[n+]1cccc(NC(=O)c2cccs2)c1,–,inactive: -3.81%
Cc1cccc(N(CC(=O)NCc2ccco2)C(=O)CNS(=O)(=O)c2ccc(F)cc2)c1,"inconclusive: 23.1 µM [inhibitor, partial curve, poor fit]",–
